Assay results taken from patent US20070027096.
The exact form of at least one protein or probe is not confirmed. Results from cells or extracts need not show a direct contact.

The chains behind the UniProt entries cited, without tags or fusion partners. Residues count along the entry.
UniProt P21860, 20-1342 E560G/E1064G: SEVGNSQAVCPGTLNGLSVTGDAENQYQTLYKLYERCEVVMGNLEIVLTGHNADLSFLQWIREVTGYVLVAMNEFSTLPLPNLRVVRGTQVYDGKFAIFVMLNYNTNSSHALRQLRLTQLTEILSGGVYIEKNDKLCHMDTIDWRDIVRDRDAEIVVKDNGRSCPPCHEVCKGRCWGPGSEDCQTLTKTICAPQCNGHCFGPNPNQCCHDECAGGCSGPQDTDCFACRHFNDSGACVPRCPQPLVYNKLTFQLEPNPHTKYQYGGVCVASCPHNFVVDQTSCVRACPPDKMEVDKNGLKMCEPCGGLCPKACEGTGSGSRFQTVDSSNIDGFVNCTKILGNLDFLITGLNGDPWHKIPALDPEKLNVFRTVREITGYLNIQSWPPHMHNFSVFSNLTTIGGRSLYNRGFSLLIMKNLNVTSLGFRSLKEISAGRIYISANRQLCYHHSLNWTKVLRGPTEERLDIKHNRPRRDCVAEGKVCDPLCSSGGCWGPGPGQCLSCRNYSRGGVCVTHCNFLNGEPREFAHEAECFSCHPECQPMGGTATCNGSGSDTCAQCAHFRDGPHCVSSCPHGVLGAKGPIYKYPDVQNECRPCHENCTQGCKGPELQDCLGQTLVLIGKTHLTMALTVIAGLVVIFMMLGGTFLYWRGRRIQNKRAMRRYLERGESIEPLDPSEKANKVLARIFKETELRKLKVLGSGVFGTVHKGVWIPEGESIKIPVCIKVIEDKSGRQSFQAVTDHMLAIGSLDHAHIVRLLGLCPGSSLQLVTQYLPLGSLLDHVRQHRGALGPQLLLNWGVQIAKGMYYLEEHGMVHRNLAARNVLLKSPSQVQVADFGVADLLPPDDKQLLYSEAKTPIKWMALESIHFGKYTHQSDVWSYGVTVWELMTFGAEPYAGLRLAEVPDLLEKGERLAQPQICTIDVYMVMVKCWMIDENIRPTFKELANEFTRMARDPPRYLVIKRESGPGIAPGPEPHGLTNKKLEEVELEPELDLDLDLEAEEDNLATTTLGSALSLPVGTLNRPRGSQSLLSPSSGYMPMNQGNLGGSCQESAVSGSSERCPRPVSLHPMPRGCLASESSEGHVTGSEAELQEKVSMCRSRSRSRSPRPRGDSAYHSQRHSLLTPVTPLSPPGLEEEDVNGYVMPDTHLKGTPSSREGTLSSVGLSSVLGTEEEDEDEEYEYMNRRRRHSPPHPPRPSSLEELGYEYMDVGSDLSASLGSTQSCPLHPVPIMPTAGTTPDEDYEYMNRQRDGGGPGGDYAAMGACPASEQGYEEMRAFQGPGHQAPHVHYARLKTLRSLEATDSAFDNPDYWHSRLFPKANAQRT

Molecular target: HER3 on MCF7 cells (with endogenous HER2) (Homo sapiens) (UniProt P21860)
Assay: activity in cells
Conditions: protein on the cell surface
[1] = inhibits HER2 phosphorylation, less than A30, 100 nM aptamer

“GGGAAUUCCGCGUGUGCAGAACAAUCGCAUAGGCCGCAAGGUUAGUUUCGUUGUCCGCCCGGUGCAGUCCGUUCGGGAUCCUC [A6]” was tested, and the “functional effect of the aptamer” value (enhances low-affinity heregulin activation at 100 nM aptamer) was “active”.
Sequence “GGGAAUUCCGCGUGUGCCAGCGAAAGUUGCGUAUGGGUCACAUCGCAGGCACAUGUCAUCUGGGCGGUCCGUUCGGGAUCCUC [A30]” has an IC50 (inhibition of heregulin-induced HER2 tyrosine phosphorylation in MCF7, EGF-induced activation not inhibited) of 10 nM.
In the case of “GGGAAUUCCGCGUGUGCGAGGGGCGAGGACGCCGAGUAUAGCCCCUAGAGGUGGAUGUUUCACGGUGUCCGUUCGGGAUCCUC [A23]”, the “functional effect of the aptamer” value [1] is reported as “active”.
With “GGGAAUUCCGCGUGUGCUUGAGAGGUCGUGCCAACUCUCAAGGUUGUCUUUGCUCUCCGCUCUGUGGUCCGUUCGGGAUCCUC [A37]” the “functional effect of the aptamer” value [1] was “active”.
